Where “and” joins values, the source holds several entries; their conditions need not be identical. Identical values can stand only once. Screen size: about 300,000 compounds; about 5,400 (1.8%) were called active. The shares of active, inactive and inconclusive entries below differ from those in the screen. Calls follow the shape of the full dose curve; tested in HEK293 cells. A potency beside an inconclusive call is a rough fit, not a confirmed value. More than one record can exist for a structure, and the calls need not agree.
Experiment: qHTS for inhibitors of binding or entry into cells for Marburg Virus
Conditions: Marburg virus pseudotyped entry inhibition, cell reporter; series mostly up to 37.8 µM
Potency is read from the fitted curve at half-maximal effect.

| Compound | Potency |
| --- | --- |
| COc1ccccc1C(=O)Nc1nc2nc(C)cc(=O)n2[nH]1 | inactive |
| O=C(CCC(=O)N(CC(=O)NC1CCCCC1)Cc1ccccc1)Nc1nccs1 | inconclusive: 0.562 µM [inhibitor, full curve, poor fit] |
| Cc1cc(=O)[nH]c2ccc(Cc3ccccc3)cc12 | inconclusive: 35.5 µM [inhibitor, single point] |
| Cc1ccc(NC(=O)CSc2nc(=O)n(CCN(C)C)c3c2CCCC3)cc1Cl | inconclusive: 35.5 µM [inhibitor, single point] |
| Cc1ccc(CSc2nnc(SCC(=O)N/N=C/c3c(C)nn(-c4ccccc4)c3C)s2)cc1 | inconclusive: 25.9 µM [inhibitor, partial curve, poor fit] |
| CNC(=O)Oc1ccc2c(c1)[C@]1(C)CCN(C)[C@@H]1N2C | inactive and active: 282 nM |
| Cc1cc(O)c(C(C)C)cc1N=Cc1ccc(N(C)C)cc1 | inconclusive: 12.6 µM [inhibitor, partial curve, poor fit] |
| COc1cc(C(c2c(C)[nH][nH]c2=O)c2c(C)[nH][nH]c2=O)ccc1OCc1ccc([N+](=O)[O-])cc1 | inconclusive: 16.4 µM [activator, partial curve, poor fit] |
| NC(CSC1(c2ccccc2)c2ccccc2-c2ccccc21)C(=O)O (stereo not drawn) | inactive |
| O=C(Nc1nnc(-c2ccccc2)s1)c1ccccc1O | inactive |
| [2H]c1c([2H])c([2H])c(-c2nc(N3CCCCCC3)sc2C(=O)c2ccccc2)c([2H])c1[2H] | inconclusive: 35.5 µM [inhibitor, single point] |
| Cc1cc(Br)ccc1NC(=O)CNC(=O)CSc1ncccn1 | inactive |
| COc1cc(/C=C/C(=O)CC(=O)/C=C/c2ccc(O)c(OC)c2)ccc1O | inconclusive: 29.1 µM [inhibitor, partial curve, poor fit] |
| CC(C)(C)C(=O)Nc1ccc(C(=O)NNC(=O)Cc2ccccc2)cc1 | inactive |
| COc1ccc(-c2[nH]c(-c3ccc(O)cc3)nc2-c2ccccc2)cc1 | inconclusive: 5.62 µM [activator, single point] |
| O=C(CCl)NC(Cc1ccccc1)C(=O)OCC(=O)c1ccc(-c2ccccc2)cc1 (stereo not drawn) | inactive |
| CN(C)S(=O)(=O)c1ccc2c(c1)nc(CCC(=O)NCCc1ccc(Cl)cc1)n2C | inactive |
| Cc1ccc(NC(=O)CN2CCC(NC(=O)Cc3ccccc3)CC2)c(C)c1 | inactive |
| Cc1oc(-c2ccccc2F)nc1CS(=O)(=O)CC(=O)N1CCN(c2ccccc2)CC1 | inactive |
| O=S(=O)(NCc1ccccc1)c1ccc(S(=O)(=O)NCC2CCCO2)cc1 (stereo not drawn) | inactive |
| Cc1cc(C)n(-c2ccc(C(=O)OCC(=O)Nc3ccccc3[N+](=O)[O-])cc2)n1 | inconclusive: 1.26 µM [activator, partial curve, poor fit] |

| Compound | Potency |
| --- | --- |
| O=C(N[C@@H](Cc1ccccc1)c1nc2ccccc2[nH]1)c1cc([N+](=O)[O-])ccc1Cl | inconclusive: 18.4 µM [inhibitor, partial curve, poor fit] |
| Cc1ccccc1C1=C/C(=C(\SS/C(C(=O)c2ccc(OCC(=O)O)c(Cl)c2Cl)=C2\C=C(c3ccccc3C)SS2)C(=O)c2ccc(OCC(=O)O)c(Cl)c2Cl)SS1 | inconclusive: 11.2 µM [inhibitor, partial curve, poor fit] |
| O=C(Nc1ccc2c(c1)OCCO2)c1cccc(S(=O)(=O)N2CCOCC2)c1 | inactive |
| Cc1ccc(NC(=O)c2cc(C(=O)c3cc(Cl)ccc3O)cn(-c3ccc(C)cc3)c2=O)cc1 | inconclusive: 1.12 µM [inhibitor, partial curve, poor fit] |
| COc1cc(/C=C2\SC(N)=NC2=O)ccc1O | inconclusive: 2.82 µM [inhibitor, full curve] |
| N#C/C(=C\C=C\c1ccccc1[N+](=O)[O-])C(=O)NCc1ccccc1 | inconclusive: 25.1 µM [inhibitor, single point] |
| CC(=O)c1ccc(NC(=O)C(C)Sc2nnc3ccccn23)cc1 (stereo not drawn) | inactive |
| Cc1ccc(/C=N/NC(=O)c2cc(-c3cccnc3)nc3ccccc23)cc1 | inconclusive: 5.62 µM [inhibitor, full curve, poor fit] |
| CCOC(=O)c1c(-c2cccc([N+](=O)[O-])c2)csc1NC(=O)C1CCCCC1 | inconclusive: 15.8 µM [inhibitor, partial curve, poor fit] |
| COc1ccc(NC(=O)NNS(=O)(=O)c2cc(C)ccc2C)cc1OC | inconclusive: 2.82 µM [inhibitor, single point] |
| CN(C)CC(C)(C)CNS(=O)(=O)c1ccc(Cl)c(Cl)c1 | inconclusive: 29.1 µM [inhibitor, single point] and inconclusive: 7.08 µM [inhibitor, full curve, poor fit] |
| CC(C)(c1cc(Cl)c(O)c(CN2CCOCC2)c1)c1cc(Cl)c(O)c(CN2CCOCC2)c1 | inconclusive: 12.6 µM [inhibitor, partial curve, poor fit] |
| Cc1ccccc1NC(=O)c1cc(S(=O)(=O)c2ccccc2)ccc1Cl | inconclusive: 22.4 µM [inhibitor, single point] |
| CC(=O)Nc1ccc(C(=O)CS(=O)(=O)c2ccc(C)cc2)cc1 | inconclusive: 0.1 µM [activator, full curve, poor fit] |
| C[N+](C)(C)CCOC(=O)C1(c2ccccc2)CCCC1 | inconclusive: 12.6 µM [activator, single point] |
| O=C(Nc1ccc2oc(-c3cccnc3)nc2c1)c1ccc([N+](=O)[O-])o1 | inconclusive: 35.5 µM [inhibitor, single point] |
| O=c1cc(-c2ccccc2)[nH]c2cc(Cl)ccc12 | inconclusive: 0.651 µM [inhibitor, full curve] |
| COCCN(C(=O)COC(=O)CCC(=O)c1ccc(Cl)cc1)c1c(N)n(Cc2ccccc2)c(=O)[nH]c1=O | inconclusive: 11.2 µM [activator, single point] |
| CCOC(=O)c1c(NC(=O)CSc2nnc(-c3ccccc3)n2CC)sc(C(C)=O)c1C | inconclusive: 18.3 µM [inhibitor, single point] |
| Cc1nn(C(C)(C)C)c(OC(=O)c2ccc3c(c2)OCO3)c1S(=O)(=O)c1ccccc1 | inconclusive: 35.5 µM [inhibitor, single point] |
| CCc1ccc(N2C(=O)C3NN=C(C(=O)OCc4ccccc4)C3C2=O)cc1 (stereo not drawn) | inconclusive: 0.794 µM [inhibitor, partial curve, poor fit] |

| Compound | Potency |
| --- | --- |
| Cc1ccc(N2C(=O)Nc3cc(Cl)c(Cl)cc3N2O)cc1Cl | inactive |
| CCOc1ccc(OCC)c(NC(=O)CN2CCN(c3cc(C)ccc3C)CC2)c1 | inconclusive: 32.6 µM [inhibitor, single point] |
| CCC(=O)Nc1cccc(NC(=S)NC(=O)c2cc3ccccc3o2)c1 | inconclusive: 35.5 µM [inhibitor, single point] |
| O=C(COc1ccccc1)Nc1nc2c(s1)CCCC2 | active: 6.31 µM |
| N#C/C(=C\Nc1ccc(Cl)cn1)S(=O)(=O)c1ccccc1 | inconclusive: 35.5 µM [activator, single point] |
| CCNc1ccc(Br)cc(C(=O)/C=C/c2ccc(Cl)cc2)c1=O | inconclusive: 0.316 µM [inhibitor, full curve, poor fit] |
| Cc1csc(SCC(=O)Nc2cccc3nsnc23)n1 | inactive |
| Clc1cccc(Cl)c1CSc1nnc(-c2sccc2-n2cccc2)o1 | inconclusive: 35.5 µM [inhibitor, single point] |
| COc1ccc(N(Cc2cccs2)C(=O)c2ccco2)cc1 | inconclusive: 7.08 µM [inhibitor, partial curve, poor fit] |
| OCC1(Cc2ccccc2)CCN(C2CCN(c3ccccc3F)CC2)CC1 | inconclusive: 15.8 µM [inhibitor, single point] |
| CC1CCN(C(=O)CSc2nnc(-c3cc4ccccc4cc3O)n2Cc2ccco2)CC1 | inconclusive: 29.1 µM [inhibitor, single point] |
| CCc1cccc(C)c1NC(=O)c1ccc2c(c1)CCN2S(=O)(=O)c1ccc(Cl)cc1 | inconclusive: 11.2 µM [inhibitor, partial curve, poor fit] |
| COc1ccccc1N1CCN(C(=O)COc2ccc(C)cc2Br)CC1 | inactive |
| CC(=O)c1cccc(NC(=O)NCCc2ccc(Cl)cc2)c1 | inconclusive: 3.55 µM [activator, single point] |
| CC(=O)c1ccc(N2CCN(C(=O)c3cn(C)c(=O)c4c3c3ccccc3n4C)CC2)cc1 | inconclusive: 6.31 µM [activator, partial curve, poor fit] |
| CCn1c(SCC(=O)N/N=C/c2ccc(C)s2)nc2ccccc21 | active: 2.59 µM |
| Cc1ccc(S(=O)(=O)CC2CSc3nc4ccccc4n32)cc1 (stereo not drawn) | inconclusive: 3.16 µM [inhibitor, partial curve, poor fit] |
| CCS(=O)(=O)N1CCc2cc(C(=O)Nc3ccc(Br)cc3F)ccc21 | inconclusive: 2.82 µM [activator, full curve, poor fit] |
| COc1ccccc1NC(=O)Cn1c(CCC(=O)O)ccc1-c1ccc(C)cc1 | inactive |
| Cc1cc(NS(=O)(=O)c2ccc(NC(=O)COc3c(C)ccc(C)c3C)cc2)nc(C)n1 | inactive |
| Cc1ccc(NC(=O)O/N=C2\CCCCC2c2ccc([N+](=O)[O-])cc2[N+](=O)[O-])cc1 (stereo not drawn) | inconclusive: 11.2 µM [inhibitor, partial curve, poor fit] |

Reference: PubChem BioAssay AID540276 (National Center for Advancing Translational Sciences (NCATS), 2011)
